Source: PMC3379994, “Comprehensive Analysis of Interactions between the Src-Associated Protein in Mitosis of 68 kDa and the Human Src-Homology 3 Proteome” (PLoS ONE, 2012)
These are yes or no findings as the source states them, for the method shown. For some of these results: In cells and extracts the contact can be indirect. Some results given as binding are weak or reduced against the parent protein; the word gives no strength. For some of these results: Tags and fused reporters may be left off the sequences shown.

B1: SH3 domain from Osteoclast stimulating factor 1, displayed on M13 phage (domain or fragment, UniProt Q92882 12-71)
chain: GQVKVFRALYTFEPRTPDELYFEEGDIIYITDMSDTNWWKGTSKGRTGLIPSNYVAEQAE
B2: SH3 domain #3 from Intersectin 2, displayed on M13 phage (domain or fragment, UniProt Q9NZM3 981-1039)
chain: SVGEEYIALYPYSSVEPGDLTFTEGEEILVTQKDGEWWTGSIGDRSGIFPSNYVKPKDQ
B3: YFP-tagged SH3 domain #3 of Intersectin 2 (domain or fragment, UniProt Q9NZM3 981-1039)
chain: B2 chain
B4: YFP-tagged SH3 domain of osteoclast stimulating factor 1 (domain or fragment, UniProt Q92882 12-71)
chain: B1 chain
B5: SH3 domain from Nephrocystin, displayed on M13 phage (domain or fragment, UniProt O15259 152-212)
chain: STGEEYIAVGDFTAQQVGDLTFKKGEILLVIEKKPDGWWIAKDAKGNEGLVPRTYLEPYSE

How the values were obtained:
[1] = biological target: His-tagged Sam68 (Src-associated in mitosis, 68 kDa) (human (cDNA from HEK293T cells)) (UniProt Q07666); assay: ELISA; only the target purified
[2] = biological target: His-tagged Sam68 (Src-associated in mitosis, 68 kDa) (human (cDNA from HEK293T cells)) (UniProt Q07666); assay: phage display bio-panning; 10 µg His-Sam68 or GST-Sam68 immobilised on magnetic M-270 epoxy beads; human SH3 phage library (296 domains as pVIII fusions), 1 h; 10 washes with PBS + 0.05 % Tween-20; elution at pH 2.2; 162 clones sequenced; only the target purified
[3] = biological target: CFP-tagged Sam68 (human (cDNA from HEK293T cells)) (UniProt Q07666); assay: FRET or BRET; flow-cytometry-based FRET in living 293T cells co-transfected with CFP- and YFP-tagged proteins, analysed 48 h after transfection

Binder	binding [1]	binding [2]	binding [3]
B1	binds	binds	
B2	binds	binds	
B3			binds
B4			binds
B5		binds	
